The other results are listed elsewhere or left out.
What was measured:
Assay in all cases: log2 fold change, soluble protein after heating vs DMSO (PISA); higher = thermal stabilisation; K562 cells, 10 uM, 30 min; active = over 0.2 and 3.5 SD of the protein, either way, in both replicates (recomputed)
bafetinib = compound: Cc1ccc(NC(=O)c2ccc(CN3CC[C@H](N(C)C)C3)c(C(F)(F)F)c2)cc1Nc1nccc(-c2cncnc2)n1 [bafetinib]
How it was run: (§1)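 K562 cells (2×10^6 cells/mL) were treated with 10 μM compound for 30 min, and aliquots were heated for 3 min over 48°C-58°C. Pooled aliquots were extracted in PBS with 0.5% NP-40 at 4°C, and the supernatant after 21,000xg for 90 min was measured by TMTpro 16plex LC-MS/MS with channel sums equalised. Reported thermal stability, relative to control samples and from duplicates, is a log2 fold change.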

Chains of the proteins cited; added tags and fusions are not shown. Lines headed by an entry give the natural chain unless they say otherwise; changes in a name come on top.
UniProt Q08623: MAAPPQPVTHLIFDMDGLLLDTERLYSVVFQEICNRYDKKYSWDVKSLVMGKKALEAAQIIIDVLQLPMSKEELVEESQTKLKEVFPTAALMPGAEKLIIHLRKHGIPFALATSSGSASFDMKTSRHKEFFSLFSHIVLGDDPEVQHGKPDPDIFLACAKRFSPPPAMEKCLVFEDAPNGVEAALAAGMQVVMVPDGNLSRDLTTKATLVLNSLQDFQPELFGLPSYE
UniProt Q15257: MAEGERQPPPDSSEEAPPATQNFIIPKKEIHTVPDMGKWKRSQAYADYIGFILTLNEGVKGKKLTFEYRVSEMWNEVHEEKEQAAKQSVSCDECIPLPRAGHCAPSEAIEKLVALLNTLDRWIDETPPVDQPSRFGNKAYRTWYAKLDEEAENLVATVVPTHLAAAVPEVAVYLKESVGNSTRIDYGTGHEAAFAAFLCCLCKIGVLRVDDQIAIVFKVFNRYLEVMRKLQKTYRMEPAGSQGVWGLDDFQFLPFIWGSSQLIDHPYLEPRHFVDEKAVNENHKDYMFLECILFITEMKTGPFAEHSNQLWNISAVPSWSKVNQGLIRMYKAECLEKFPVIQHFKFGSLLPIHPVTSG
UniProt Q15185: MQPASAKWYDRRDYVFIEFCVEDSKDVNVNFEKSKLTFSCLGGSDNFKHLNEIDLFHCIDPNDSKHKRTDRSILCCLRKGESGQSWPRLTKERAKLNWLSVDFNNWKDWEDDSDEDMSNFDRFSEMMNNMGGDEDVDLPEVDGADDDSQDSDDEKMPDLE
UniProt Q96PZ0: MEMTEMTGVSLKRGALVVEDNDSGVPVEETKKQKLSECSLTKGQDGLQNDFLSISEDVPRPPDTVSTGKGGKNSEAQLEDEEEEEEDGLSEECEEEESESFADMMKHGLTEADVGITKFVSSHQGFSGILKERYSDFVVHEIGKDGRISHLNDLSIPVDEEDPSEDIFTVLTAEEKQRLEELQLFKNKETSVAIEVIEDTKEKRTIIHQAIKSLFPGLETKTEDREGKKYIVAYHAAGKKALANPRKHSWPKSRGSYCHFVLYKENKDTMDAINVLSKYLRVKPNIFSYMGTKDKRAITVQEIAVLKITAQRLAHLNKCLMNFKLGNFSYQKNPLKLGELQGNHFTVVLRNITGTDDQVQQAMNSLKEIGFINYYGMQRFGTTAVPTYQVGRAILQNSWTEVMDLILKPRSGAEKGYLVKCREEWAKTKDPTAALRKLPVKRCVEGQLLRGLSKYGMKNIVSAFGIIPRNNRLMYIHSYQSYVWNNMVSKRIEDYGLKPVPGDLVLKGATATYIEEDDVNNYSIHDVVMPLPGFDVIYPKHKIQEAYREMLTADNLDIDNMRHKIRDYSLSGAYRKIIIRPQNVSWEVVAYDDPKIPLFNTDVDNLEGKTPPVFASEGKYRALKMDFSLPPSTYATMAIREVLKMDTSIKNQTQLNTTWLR
UniProt Q86TP1: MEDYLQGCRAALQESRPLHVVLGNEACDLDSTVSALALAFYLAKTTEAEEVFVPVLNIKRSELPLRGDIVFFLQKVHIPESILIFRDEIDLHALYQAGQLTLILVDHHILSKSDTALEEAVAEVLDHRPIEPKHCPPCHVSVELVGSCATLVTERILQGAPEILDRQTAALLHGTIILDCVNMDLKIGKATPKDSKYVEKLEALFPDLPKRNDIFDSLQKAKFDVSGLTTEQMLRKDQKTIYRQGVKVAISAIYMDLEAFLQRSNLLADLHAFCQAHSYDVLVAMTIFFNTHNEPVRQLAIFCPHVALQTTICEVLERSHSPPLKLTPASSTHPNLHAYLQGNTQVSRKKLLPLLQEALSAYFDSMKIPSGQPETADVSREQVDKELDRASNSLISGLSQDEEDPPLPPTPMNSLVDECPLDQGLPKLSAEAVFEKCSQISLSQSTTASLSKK
UniProt Q9Y6I8: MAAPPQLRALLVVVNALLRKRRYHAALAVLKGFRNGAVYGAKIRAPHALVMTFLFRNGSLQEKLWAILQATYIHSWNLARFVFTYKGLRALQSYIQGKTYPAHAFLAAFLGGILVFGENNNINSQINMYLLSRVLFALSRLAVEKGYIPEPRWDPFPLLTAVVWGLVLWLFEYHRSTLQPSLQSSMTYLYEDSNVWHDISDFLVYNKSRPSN
UniProt Q00577: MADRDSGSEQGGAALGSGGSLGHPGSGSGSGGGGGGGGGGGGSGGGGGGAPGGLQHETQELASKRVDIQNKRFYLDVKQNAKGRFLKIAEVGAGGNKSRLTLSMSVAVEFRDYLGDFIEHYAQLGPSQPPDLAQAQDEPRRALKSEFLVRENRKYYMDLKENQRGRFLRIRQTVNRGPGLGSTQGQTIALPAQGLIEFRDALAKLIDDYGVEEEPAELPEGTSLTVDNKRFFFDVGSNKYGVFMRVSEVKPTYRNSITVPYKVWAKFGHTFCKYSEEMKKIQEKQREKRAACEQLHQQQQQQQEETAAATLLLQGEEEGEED
UniProt P06454: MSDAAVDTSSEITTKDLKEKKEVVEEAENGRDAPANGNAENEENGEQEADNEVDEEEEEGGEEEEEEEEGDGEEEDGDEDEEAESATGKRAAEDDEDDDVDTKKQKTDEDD
UniProt P55036: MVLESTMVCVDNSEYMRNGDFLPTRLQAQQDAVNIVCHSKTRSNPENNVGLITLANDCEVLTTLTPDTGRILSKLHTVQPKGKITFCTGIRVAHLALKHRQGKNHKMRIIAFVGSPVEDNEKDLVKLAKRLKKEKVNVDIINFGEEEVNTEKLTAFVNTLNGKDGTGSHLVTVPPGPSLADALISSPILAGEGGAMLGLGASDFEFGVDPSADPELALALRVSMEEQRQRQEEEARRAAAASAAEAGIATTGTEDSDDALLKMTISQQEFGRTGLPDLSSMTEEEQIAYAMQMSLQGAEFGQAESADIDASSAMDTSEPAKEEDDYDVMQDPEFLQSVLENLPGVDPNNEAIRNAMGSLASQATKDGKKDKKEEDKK
UniProt O95456: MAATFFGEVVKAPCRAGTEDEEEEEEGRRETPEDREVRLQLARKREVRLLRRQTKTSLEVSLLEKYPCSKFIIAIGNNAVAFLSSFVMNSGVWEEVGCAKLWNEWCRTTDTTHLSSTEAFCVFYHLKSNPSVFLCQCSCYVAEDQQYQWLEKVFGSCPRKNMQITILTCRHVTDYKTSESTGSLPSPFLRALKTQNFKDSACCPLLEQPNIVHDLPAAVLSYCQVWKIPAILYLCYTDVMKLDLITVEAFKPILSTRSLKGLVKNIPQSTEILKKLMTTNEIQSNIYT
UniProt O00487, whole entry, looked up: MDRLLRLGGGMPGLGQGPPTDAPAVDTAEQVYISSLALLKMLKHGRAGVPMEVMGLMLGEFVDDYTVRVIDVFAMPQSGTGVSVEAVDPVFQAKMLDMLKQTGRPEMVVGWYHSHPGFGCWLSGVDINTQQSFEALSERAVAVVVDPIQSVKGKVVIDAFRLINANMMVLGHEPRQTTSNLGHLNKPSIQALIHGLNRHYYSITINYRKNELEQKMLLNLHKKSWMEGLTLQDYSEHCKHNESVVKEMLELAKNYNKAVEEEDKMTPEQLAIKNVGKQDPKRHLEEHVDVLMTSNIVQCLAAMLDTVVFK
UniProt Q15274: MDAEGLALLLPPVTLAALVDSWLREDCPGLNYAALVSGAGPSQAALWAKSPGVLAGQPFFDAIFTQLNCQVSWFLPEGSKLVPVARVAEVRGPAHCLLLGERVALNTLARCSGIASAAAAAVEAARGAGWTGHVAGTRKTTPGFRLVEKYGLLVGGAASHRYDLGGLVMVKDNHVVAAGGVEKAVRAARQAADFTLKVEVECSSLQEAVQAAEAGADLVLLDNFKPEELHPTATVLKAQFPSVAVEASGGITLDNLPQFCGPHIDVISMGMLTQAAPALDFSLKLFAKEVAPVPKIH
UniProt P11216: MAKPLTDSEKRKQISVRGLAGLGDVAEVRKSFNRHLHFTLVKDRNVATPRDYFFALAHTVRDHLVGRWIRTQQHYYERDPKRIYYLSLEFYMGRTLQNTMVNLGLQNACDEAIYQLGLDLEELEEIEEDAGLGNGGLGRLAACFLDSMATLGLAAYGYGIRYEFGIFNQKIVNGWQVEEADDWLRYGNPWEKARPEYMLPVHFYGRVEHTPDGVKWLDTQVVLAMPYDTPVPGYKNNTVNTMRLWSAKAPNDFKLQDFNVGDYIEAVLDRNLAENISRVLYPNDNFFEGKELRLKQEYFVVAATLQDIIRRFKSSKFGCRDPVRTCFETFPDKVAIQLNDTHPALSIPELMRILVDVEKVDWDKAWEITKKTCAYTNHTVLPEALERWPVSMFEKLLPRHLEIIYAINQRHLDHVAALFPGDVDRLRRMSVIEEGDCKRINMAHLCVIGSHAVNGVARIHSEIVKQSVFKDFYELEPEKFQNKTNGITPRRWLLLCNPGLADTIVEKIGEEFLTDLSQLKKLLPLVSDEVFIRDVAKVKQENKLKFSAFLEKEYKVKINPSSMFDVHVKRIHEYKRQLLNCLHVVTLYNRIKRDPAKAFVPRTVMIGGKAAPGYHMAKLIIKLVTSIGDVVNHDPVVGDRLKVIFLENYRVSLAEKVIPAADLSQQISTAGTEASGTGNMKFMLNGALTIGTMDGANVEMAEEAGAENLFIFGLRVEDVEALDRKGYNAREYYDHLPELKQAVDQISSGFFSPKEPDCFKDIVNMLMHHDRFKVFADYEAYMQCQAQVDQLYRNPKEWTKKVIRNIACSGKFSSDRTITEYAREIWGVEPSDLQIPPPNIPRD
UniProt P28070, whole entry, looked up: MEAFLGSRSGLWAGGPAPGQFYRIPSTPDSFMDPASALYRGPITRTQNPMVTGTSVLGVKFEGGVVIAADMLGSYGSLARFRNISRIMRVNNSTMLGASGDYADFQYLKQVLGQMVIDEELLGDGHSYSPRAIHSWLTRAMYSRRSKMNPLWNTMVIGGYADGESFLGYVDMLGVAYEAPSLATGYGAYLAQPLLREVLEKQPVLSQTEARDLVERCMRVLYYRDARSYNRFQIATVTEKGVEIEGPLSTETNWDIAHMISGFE
UniProt Q93096: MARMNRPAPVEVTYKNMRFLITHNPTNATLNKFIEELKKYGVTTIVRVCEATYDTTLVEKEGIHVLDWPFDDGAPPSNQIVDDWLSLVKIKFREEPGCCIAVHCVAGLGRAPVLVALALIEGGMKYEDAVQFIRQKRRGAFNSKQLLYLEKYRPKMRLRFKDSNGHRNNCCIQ
UniProt O75365, whole entry, looked up: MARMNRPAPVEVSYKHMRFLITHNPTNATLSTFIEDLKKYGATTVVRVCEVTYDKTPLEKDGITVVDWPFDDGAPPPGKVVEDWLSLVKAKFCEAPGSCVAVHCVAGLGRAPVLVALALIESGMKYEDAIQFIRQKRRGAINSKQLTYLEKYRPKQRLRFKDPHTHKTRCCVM
UniProt P49023, whole entry, looked up: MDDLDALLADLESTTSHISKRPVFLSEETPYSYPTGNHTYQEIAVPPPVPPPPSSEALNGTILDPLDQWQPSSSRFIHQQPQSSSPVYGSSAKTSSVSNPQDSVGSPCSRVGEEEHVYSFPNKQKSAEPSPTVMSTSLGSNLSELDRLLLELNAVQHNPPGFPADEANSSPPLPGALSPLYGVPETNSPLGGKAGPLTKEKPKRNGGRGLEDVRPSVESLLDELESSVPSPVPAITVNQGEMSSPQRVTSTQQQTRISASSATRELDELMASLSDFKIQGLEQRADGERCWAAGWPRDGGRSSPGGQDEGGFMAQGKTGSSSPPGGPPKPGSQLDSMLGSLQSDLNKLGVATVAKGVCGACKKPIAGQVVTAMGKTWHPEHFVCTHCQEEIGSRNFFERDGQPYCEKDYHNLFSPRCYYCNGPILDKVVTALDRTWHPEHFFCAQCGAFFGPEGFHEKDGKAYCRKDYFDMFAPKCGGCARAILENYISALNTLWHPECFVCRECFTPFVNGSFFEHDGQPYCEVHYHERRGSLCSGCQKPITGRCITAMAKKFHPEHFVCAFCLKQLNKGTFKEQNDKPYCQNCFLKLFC
UniProt Q8TAA3: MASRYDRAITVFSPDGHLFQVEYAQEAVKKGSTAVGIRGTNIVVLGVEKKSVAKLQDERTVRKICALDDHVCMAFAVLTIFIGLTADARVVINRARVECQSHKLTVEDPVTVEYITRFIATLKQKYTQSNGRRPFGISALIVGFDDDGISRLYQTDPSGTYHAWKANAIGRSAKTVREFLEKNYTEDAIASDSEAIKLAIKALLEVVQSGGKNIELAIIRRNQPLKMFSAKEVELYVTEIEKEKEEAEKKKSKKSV
UniProt P78330: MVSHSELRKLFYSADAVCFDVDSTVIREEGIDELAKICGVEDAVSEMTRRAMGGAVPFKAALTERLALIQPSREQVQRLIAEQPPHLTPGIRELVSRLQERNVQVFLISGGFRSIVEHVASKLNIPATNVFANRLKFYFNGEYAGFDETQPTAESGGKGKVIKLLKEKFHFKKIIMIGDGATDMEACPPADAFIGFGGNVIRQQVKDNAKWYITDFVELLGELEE
UniProt P25788: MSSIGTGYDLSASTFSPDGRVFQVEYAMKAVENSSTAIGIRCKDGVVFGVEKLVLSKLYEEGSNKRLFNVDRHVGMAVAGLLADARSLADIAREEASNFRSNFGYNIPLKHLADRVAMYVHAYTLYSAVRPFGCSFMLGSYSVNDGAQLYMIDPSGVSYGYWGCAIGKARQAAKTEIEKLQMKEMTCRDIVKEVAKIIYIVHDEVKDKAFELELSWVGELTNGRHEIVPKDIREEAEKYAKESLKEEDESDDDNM

[1] = compound: Cc1cccc(CC(=O)N2CCc3c2ccc(-c2cn(C)c4ncnc(N)c24)c3F)n1
How it was run: as §1

nilotinib = compound: Cc1cn(-c2cc(NC(=O)c3ccc(C)c(Nc4nccc(-c5cccnc5)n4)c3)cc(C(F)(F)F)c2)cn1 [nilotinib]
How it was run: as §1

[2] = compound: Cc1nc(Nc2n[nH]c3c2CN(C(=O)N[C@H](CN(C)C)c2ccccc2)C3(C)C)c2sccc2n1
How it was run: as §1

dasatinib = compound: Cc1nc(Nc2ncc(C(=O)Nc3c(C)cccc3Cl)s2)cc(N2CCN(CCO)CC2)n1 [dasatinib]
How it was run: as §1

[3] = compound: Cc1ncc(-c2ccnc(Nc3ccc(S(C)(=O)=O)cc3)n2)n1C(C)C
How it was run: as §1

[4] = compound: Cn1cc(-c2ccc3c(c2)CCN3C(=O)Cc2cccc(C(F)(F)F)c2)c2c(N)ncnc21
How it was run: as §1

[5] = compound: Cn1cc(-c2ccc3nnc(C(F)(F)c4ccc5ncccc5c4)n3n2)cn1
How it was run: as §1

tipifarnib = compound: Cn1cncc1[C@@](N)(c1ccc(Cl)cc1)c1ccc2c(c1)c(-c1cccc(Cl)c1)cc(=O)n2C [tipifarnib]
How it was run: as §1

mubritinib = compound: FC(F)(F)c1ccc(/C=C/c2nc(COc3ccc(CCCCn4ccnn4)cc3)co2)cc1 [mubritinib]
How it was run: as §1

Measured: log2 fold change

PSMG3 (UniProt Q9BT73)
inactive: bafetinib -0.075 | [1] -0.033 | nilotinib -0.007 | [2] 0.007 | dasatinib 0.031 | [3] 0.016 | [4] -0.01 | [5] 0.033 | tipifarnib 0.034 | mubritinib 0.046

PTPRC (UniProt P08575)
inactive: bafetinib 0.002 | [1] -0.011 | nilotinib 0.056 | [2] -0.044 | dasatinib 0 | [3] 0 | [4] 0.068 | [5] 0.017 | tipifarnib 0.015 | mubritinib 0.045

PUDP isoform 4 (UniProt Q08623)
inactive: bafetinib -0.069 | [1] -0.03 | nilotinib 0.028 | [2] 0.033 | dasatinib -0.05 | [3] 0.024 | [4] 0.058 | [5] 0.003 | tipifarnib -0.069 | mubritinib 0.015

PTPA (UniProt Q15257)
inactive: bafetinib -0.038 | [1] 0.011 | nilotinib -0.014 | [2] 0.012 | dasatinib -0.014 | [3] -0.002 | [4] 0.034 | [5] 0.03 | tipifarnib 0.013 | mubritinib 0.028

PTGR2 (UniProt Q8N8N7)
active: [5] 0.485
inactive: bafetinib 0.084 | [1] -0.151 | nilotinib 0.003 | [2] -0.215 | dasatinib -0.025 | [3] 0.07 | [4] 0.112 | tipifarnib 0.184 | mubritinib -0.066

PUS3 (UniProt Q9BZE2)
inactive: bafetinib -0.003 | [1] 0 | nilotinib -0.062 | [2] 0.065 | dasatinib -0.075 | [3] -0.062 | [4] 0.078 | [5] -0.027 | tipifarnib -0.046 | mubritinib 0.037

PTGES3 (UniProt Q15185)
inactive: bafetinib -0.05 | [1] 0.028 | nilotinib -0.044 | [2] -0.089 | dasatinib -0.142 | [3] -0.042 | [4] 0.034 | [5] 0.039 | tipifarnib -0.119 | mubritinib -0.091

PUS7 isoform 2 (UniProt Q96PZ0)
inactive: bafetinib -0.009 | [1] -0.025 | nilotinib -0.005 | [2] -0.04 | dasatinib -0.008 | [3] -0.085 | [4] -0.028 | [5] -0.022 | tipifarnib 0.016 | mubritinib -0.021

PRUNE1 (UniProt Q86TP1)
inactive: bafetinib -0.037 | [1] 0.045 | nilotinib -0.051 | [2] -0.054 | dasatinib -0.178 | [3] 0.082 | [4] -0.045 | [5] -0.045 | tipifarnib -0.122 | mubritinib -0.056

PTPN23 (UniProt Q9H3S7)
inactive: bafetinib 0.028 | [1] 0.053 | nilotinib -0.07 | [2] -0.096 | dasatinib -0.199 | [3] 0.059 | [4] -0.016 | [5] 0.02 | tipifarnib -0.069 | mubritinib 0.034

PYCR1 (UniProt J3QKT4)
inactive: bafetinib -0.044 | [1] -0.263

PXMP4 (UniProt Q9Y6I8)
inactive: bafetinib -0.093 | [1] -0.01 | nilotinib 0 | [2] -0.008 | dasatinib -0.001 | [3] -0.014 | [4] 0.054 | [5] 0.054 | tipifarnib 0.143 | mubritinib 0.002

PURA (UniProt Q00577)
inactive: bafetinib 0.108 | [1] -0.089 | nilotinib 0.06 | [2] 0.105 | dasatinib 0.335 | [3] 0.017 | [4] -0.382 | [5] -0.12 | tipifarnib 0.207 | mubritinib -0.06

PTMA (UniProt P06454)
inactive: bafetinib -0.076 | [1] -0.047 | nilotinib 0.023 | [2] 0.001 | dasatinib -0.01 | [3] -0.031 | [4] 0.177 | [5] -0.147 | tipifarnib -0.02 | mubritinib 0.109

PSMD4 (UniProt P55036)
inactive: bafetinib 0.067 | [1] -0.016 | nilotinib 0.064 | [2] 0.044 | dasatinib 0.017 | [3] -0.019 | [4] -0.08 | [5] -0.022 | tipifarnib 0.063 | mubritinib -0.019

PSMG1 (UniProt O95456)
inactive: bafetinib -0.049 | [1] 0.034 | nilotinib -0.016 | [2] 0.004 | dasatinib 0.054 | [3] -0.003 | [4] -0.016 | [5] 0.024 | tipifarnib 0.012 | mubritinib -0.006

PTGFRN (UniProt Q9P2B2)
inactive: bafetinib -0.061 | [1] -0.04 | nilotinib 0.087 | [2] 0.024 | dasatinib 0.046 | [3] 0.048 | [4] 0.038 | [5] 0.009 | tipifarnib 0.032 | mubritinib 0.065

Retrieved one by one from the entries so far, 2 records:
PTGFRN (UniProt Q9P2B2)
inactive: bafetinib -0.061 | [1] -0.04 | nilotinib 0.087 | [2] 0.024 | dasatinib 0.046 | [3] 0.048 | [4] 0.038 | [5] 0.009 | tipifarnib 0.032 | mubritinib 0.065

PTMA (UniProt P06454)
inactive: bafetinib -0.076 | [1] -0.047 | nilotinib 0.023 | [2] 0.001 | dasatinib -0.01 | [3] -0.031 | [4] 0.177 | [5] -0.147 | tipifarnib -0.02 | mubritinib 0.109

The listing continues.

PSMD14 (UniProt O00487)
inactive: bafetinib 0.215 | [1] 0.013 | nilotinib 0.022 | [2] 0.052 | dasatinib 0.019 | [3] -0.019 | [4] -0.066 | [5] -0.03 | tipifarnib 0.05 | mubritinib -0.034

PSMC4 (UniProt P43686)
inactive: bafetinib 0.087 | [1] 0 | nilotinib -0.013 | [2] 0.05 | dasatinib 0.052 | [3] -0.019 | [4] -0.128 | [5] -0.037 | tipifarnib 0.117 | mubritinib -0.012

PSRC1 (UniProt Q6PGN9)
inactive: bafetinib 0.045 | [1] 0.013 | nilotinib -0.005 | [2] -0.052 | dasatinib 0.048 | [3] -0.057 | [4] 0.027 | [5] -0.025 | tipifarnib 0.017 | mubritinib 0.023

QPRT (UniProt Q15274)
inactive: bafetinib 0 | [1] -0.008 | nilotinib -0.002 | [2] -0.037 | dasatinib 0.053 | [3] 0.001 | [4] 0.043 | [5] 0.051 | tipifarnib -0.003 | mubritinib 0.048

PYGB (UniProt P11216)
active: bafetinib -0.317 | nilotinib -0.358
inactive: [1] 0 | [2] 0.02 | dasatinib -0.042 | [3] -0.032 | [4] 0.026 | [5] -0.007 | tipifarnib 0.035 | mubritinib 0.014

PSMB4 (UniProt P28070)
inactive: bafetinib 0.051 | [1] -0.052 | nilotinib 0 | [2] 0.063 | dasatinib 0.076 | [3] -0.015 | [4] -0.03 | [5] 0.014 | tipifarnib 0.047 | mubritinib 0.009

PTCD3 (UniProt Q96EY7)
inactive: bafetinib 0.148 | [1] 0.147 | nilotinib -0.089 | [2] 0.06 | dasatinib -0.01 | [3] 0.016 | [4] -0.003 | [5] 0.018 | tipifarnib -0.038 | mubritinib 0.119

PTP4A1 (UniProt Q93096)
inactive: bafetinib -0.023 | [1] 0.013 | nilotinib 0.039 | [2] -0.049 | dasatinib 0.108 | [4] 0.181 | [5] 0.093 | tipifarnib -0.005 | mubritinib 0.074
active: [3] -0.299

PTP4A3 (UniProt O75365)
inactive: bafetinib 0.162

PXN (UniProt P49023)
inactive: bafetinib -0.029 | [1] -0.07 | nilotinib 0.017 | [2] 0 | dasatinib 0.022 | [3] -0.011 | [4] 0.017 | [5] -0.072 | tipifarnib 0.034 | mubritinib 0.013

PSMA8 (UniProt Q8TAA3)
inactive: bafetinib 0.082 | [1] -0.049 | nilotinib -0.01 | [2] 0.073 | dasatinib 0.036 | [3] -0.008 | [4] -0.053 | [5] -0.048 | tipifarnib 0.001 | mubritinib -0.027

PSPH (UniProt P78330)
inactive: bafetinib -0.032 | [1] -0.013 | nilotinib 0.005 | [2] 0.054 | dasatinib -0.008 | [3] -0.015 | [4] 0.092 | [5] -0.001 | tipifarnib -0.08 | mubritinib 0.075

PSMA3 (UniProt P25788)
inactive: bafetinib 0.06 | [1] 0.003 | nilotinib 0.041 | [2] 0.041 | dasatinib 0.029 | [3] 0.008 | [4] -0.003 | [5] -0.005 | tipifarnib 0.006 | mubritinib -0.016

PSMC6 (UniProt P62333)
inactive: bafetinib 0.069 | [1] 0.008 | nilotinib -0.029 | [2] 0.069 | dasatinib 0.039 | [3] -0.02 | [4] -0.068 | [5] 0.002 | tipifarnib 0.104 | mubritinib -0.048
